From patent publication US8828401B2 (Pfizer Inc., priority 2011, dated 2014)

Assay: general procedure: solution-phase peptide synthesis; HATU
[1] = late stage modification step, HPLC Protocol T
[2] = late stage modification step, HPLC (Protocol A)

**Q.** Which step yield (late stage modification step, acetic acid salt) does the source give for “2-methylalanyl-N-{(3R,4S,5S)-3-methoxy-1-[(2S)-2-{(1R,2R)-1-methoxy-2-methyl-3-oxo-3-[(2-phenylethyl)amino]propyl}pyrrolidin-1-yl]-5-methyl-1-oxoheptan-4-yl}-N-methyl-L-valinamide, acetic acid salt” here?
**A.** 49%

**Q.** What does the source list for “(2R)—N-[(2S)-1-{[(3R,4S,5S)-3-methoxy-1-{(2S)-2-[(1R,2R)-1-methoxy-2-methyl-3-oxo-3-{[(1S)-2-phenyl-1-(1,3-thiazol-2-yl)ethyl]amino}propyl]pyrrolidin-1-yl}-5-methyl-1-oxoheptan-4-yl](methyl)amino}-3-methyl-1-oxobutan-2-yl]”?
**A.** step yield (late stage modification step): 73%; final HPLC purity [1]: 100%

**Q.** Which step yield (coupling step) does the source give for “D-isovalyl-N-{(1S,2R)-4-{(2S)-2-[(1R,2R)-3-{[(1S)-1-benzyl-2-methoxy-2-oxoethyl]amino}-1-methoxy-2-methyl-3-oxopropyl]pyrrolidin-1-yl}-2-methoxy-1-[(1S)-1-methylpropyl]-4-oxobutyl}-N-methyl-L-valinamide” here?
**A.** 30%

**Q.** Which step yield (coupling step) does the source give for “2-methyl-L-prolyl-N-[(3R,4S,5S)-3-methoxy-1-{(2S)-2-[(1R,2R)-1-methoxy-2-methyl-3-oxo-3-{[(1S)-2-phenyl-1-(1,3-thiazol-2-yl)ethyl]amino]propyl}pyrrolidin-1-yl}-5-methyl-1-oxoheptan-4-yl]-N-methyl-L-vaLinamide, trifluoroacetic acid salt” here?
**A.** 56%

**Q.** And the “final HPLC purity” value (coupling step, HPLC (Protocol A))?
**A.** >98%

**Q.** For “3-methyl-D-isovalyl-N-{(1S,2R)-4-{(2S)-2-[(1R,2R)-3-{[(1S)-1-benzyl-2-methoxy-2-oxoethyl]amino}-1-methoxy-2-methyl-3-oxopropyl]pyrrolidin-1-yl}-2-methoxy-1-[(1S)-1-methylpropyl]-4-oxobutyl}-N-methyl-L-valinamide”, which step yield (coupling step) is on record?
**A.** 69%

**Q.** Which step yield (late stage modification step) does the source give for “2-methylalanyl-N-[(3R,4S,5S)-1-{(2S)-2-[(1R,2R)-3-{[(1S,2R)-1-hydroxy-1-phenylpropan-2-yl]amino}-1-methoxy-2-methyl-3-oxopropyl]pyrrolidin-1-yl}-3-methoxy-5-methyl-1-oxoheptan-4-yl]-N-methyl-L-valinamide” here?
**A.** 51%

**Q.** And the “final HPLC purity” value [2]?
**A.** >90%

**Q.** With “N,2-dimethylalanyl-N-{(1S,2R)-4-{(2S)-2-[(1R,2R)-3-{[(1S)-1-benzyl-2-oxo-2-(propylamino)ethyl]amino}-1-methoxy-2-methyl-3-oxopropyl]pyrrolidin-1-yl}-2-methoxy-1-[(1S)-1-methylpropyl]-4-oxobutyl}-N-methyl-L-valinamide, trifluoroacetic acid salt” as the substance, how does the step yield (late stage modification step, TFA salt) read?
**A.** 20%

**Q.** What does the source list for “N-methyl-L-valyl-N-[(3R,4S,5S)-3-methoxy-1-{(2S)-2-[(1R,2R)-1-methoxy-2-methyl-3-{[(1S)-2-phenyl-1-(1,3-thiazol-2-yl)ethyl]amino}-3-thioxopropyl]pyrrolidin-1-yl}-5-methyl-1-oxoheptan-4-yl]-N-methyl-L-valinamide”?
**A.** step yield (late stage modification step): 92%; final HPLC purity [2]: >97%

**Q.** For “N-[6-(2,5-dioxo-2,5-dihydro-1H-pyrrol-1-yl)hexanoyl]-L-valyl-N-(4-{(6S,9R,10R)-6-benzyl-10-[(2S)-1-{(3R,4S,5S)-4-[(1,2-dimethyl-L-prolyl-L-valyl)(methyl)amino]-3-methoxy-5-methylheptanoyl}pyrrolidin-2-yl]-9-methyl-3,8-dioxo-2,11-dioxa-4,7-diazadodec-1-yl}phenyl)-N˜5˜-carbamoyl-L-ornithinamide”, which conjugation yield (conjugation step) is on record?
**A.** 45%

**Q.** Which step yield (late stage modification step) does the source give for “2-methylalanyl-N-[(3R,4S,5S)-1-{(2S)-2-[(1R,2R)-3-{[bicyclo[4.2.0]octa-1,3,5-trien-7-yl(carboxy)methyl]amino}-1-methoxy-2-methyl-3-oxopropyl]pyrrolidin-1-yl}-3-methoxy-5-methyl-1-oxoheptan-4-yl]-N-methyl-L-valinamide” here?
**A.** 57%

**Q.** With “N-[5-(2,5-dioxo-2,5-dihydro-1H-pyrrol-1-yl)pentanoyl]-N,2-dimethylalanyl-N-{(1S,2R)-4-{(2S)-2-[(1R,2R)-3-{[(1S)-1-carboxy-2-phenylethyl]amino}-1-methoxy-2-methyl-3-oxopropyl]pyrrolidin-1-yl}-2-methoxy-1-[(1S)-1-methylpropyl]-4-oxobutyl}-N-methyl-L-valinamide” as the substance, how does the conjugation yield (conjugation step) read?
**A.** 3.3%

**Q.** And the “final HPLC purity” value (conjugation step, HPLC (Protocol A))?
**A.** >97%

**Q.** Which step yield (coupling step) does the source give for “N^2-[(1-aminocyclopropyl)carbonyl]-N-[(3R,4S,5S)-3-methoxy-1-{(2S)-2-[(1R,2R)-1-methoxy-2-methyl-3-oxo-3-{[(1S)-2-phenyl-1-(1,3-thiazol-2-yl)ethyl]amino}propyl]pyrrolidin-1-yl}-5-methyl-1-oxoheptan-4-yl]-N-methyl-L-valinamide” here?
**A.** 34%

**Q.** Which “final HPLC purity” value (late stage modification step, HPLC Protocol U) does the source give for “N-{(2R,3R)-3-methoxy-3-[(2S)-1-{(3R,4S,5S)-3-methoxy-5-methyl-4-[methyl(N-{[(2S)-2-methylpiperidin-2-yl]carbonyl}-L-valyl)amino]heptanoyl}pyrrolidin-2-yl]-2-methylpropanoyl}-L-phenylalanine, trifluoroacetic acid salt” here?
**A.** 98%

**Q.** For “N,2-dimethylalanyl-N-[(3R,4S,5S)-1-{(2S)-2-[(1R,2R)-3-{[(2S)-1-tert-butoxy-1-oxo-3-phenylpropan-2-yl]amino}-1-methoxy-2-methyl-3-oxopropyl]pyrrolidin-1-yl}-3-methoxy-5-methyl-1-oxoheptan-4-yl]-N-methyl-L-valinamide”, which step yield (late stage modification step) is on record?
**A.** 81%

**Q.** What about the “final HPLC purity” value [2] of the same substance?
**A.** >98%

**Q.** What does the source list for “N-[(3R,4S,5S)-1-{(2S)-2-[(1R,2R)-3-{[2-(cyclohepta-2,4,6-trien-1-yl)ethyl]amino}-1-methoxy-2-methyl-3-oxopropyl]pyrrolidin-1-yl}-3-methoxy-5-methyl-1-oxoheptan-4-yl]-N˜2˜-{[(3S)-3-fluoropyrrolidin-3-yl]carbonyl}-N-methyl-L-valinamide”?
**A.** final HPLC purity [1]: 100%; step yield (late stage modification step, over two steps): 32% over two steps

**Q.** Which step yield (late stage modification step) does the source give for “2-methylalanyl-N-[(3R,4S,5S)-1-{(2S)-2-[(1R,2R)-3-{[(2S)-1-tert-butoxy-1-oxo-3-phenylpropan-2-yl]amino}-1-methoxy-2-methyl-3-oxopropyl]pyrrolidin-1-yl}-3-methoxy-5-methyl-1-oxoheptan-4-yl]-N-methyl-L-valinamide” here?
**A.** 99%

**Q.** Which step yield (late stage modification step) does the source give for “N-methyl-L-valyl-N-{(3R,4S,5S)-3-methoxy-1-[(2S)-2-{(1R,2R)-1-methoxy-2-methyl-3-[(2-phenylethyl)amino]-3-thioxopropyl}pyrrolidin-1-yl]-5-methyl-1-oxoheptan-4-yl}-N-methyl-L-valinamide” here?
**A.** 88%

**Q.** With “N,2-dimethylalanyl-N-[(3R,4S,5S)-3-methoxy-1-{(2S)-2-[(1R,2R)-1-methoxy-2-methyl-3-{[(1S)-2-phenyl-1-(1,3-thiazol-2-yl)ethyl]amino}-3-thioxopropyl]pyrrolidin-1-yl}-5-methyl-1-oxoheptan-4-yl]-N-methyl-L-valinamide” as the substance, how does the step yield (late stage modification step) read?
**A.** 95%

**Q.** Which step yield (late stage modification step) does the source give for “N-[(9H-fluoren-9-ylmethoxy)carbonyl]-N,2-dimethylalanyl-N-[(3R,4S,5S)-3-methoxy-1-{(2S)-2-[(1R,2R)-1-methoxy-2-methyl-3-oxo-3-{[(2S)-1-oxo-1-(pentafluorophenoxy)-3-phenylpropan-2-yl]amino}propyl]pyrrolidin-1-yl}-5-methyl-1-oxoheptan-4-yl]-N-methyl-L-valinamide” here?
**A.** 74%
